The source of these data is patent publication US20240317748A1, “CARBONYL SUBSTITUTED DIAZASPIRO COMPOUNDS AND ITS USE” (BIONOVA PHARMACEUTICALS (SHANGHAI) LIMITED, priority 2021, published 2024).

Protein sequences, listed by entry. Tags and fused reporters are not part of them. Residues count along the entry.
UniProt O00255, 2-610 limits assumed: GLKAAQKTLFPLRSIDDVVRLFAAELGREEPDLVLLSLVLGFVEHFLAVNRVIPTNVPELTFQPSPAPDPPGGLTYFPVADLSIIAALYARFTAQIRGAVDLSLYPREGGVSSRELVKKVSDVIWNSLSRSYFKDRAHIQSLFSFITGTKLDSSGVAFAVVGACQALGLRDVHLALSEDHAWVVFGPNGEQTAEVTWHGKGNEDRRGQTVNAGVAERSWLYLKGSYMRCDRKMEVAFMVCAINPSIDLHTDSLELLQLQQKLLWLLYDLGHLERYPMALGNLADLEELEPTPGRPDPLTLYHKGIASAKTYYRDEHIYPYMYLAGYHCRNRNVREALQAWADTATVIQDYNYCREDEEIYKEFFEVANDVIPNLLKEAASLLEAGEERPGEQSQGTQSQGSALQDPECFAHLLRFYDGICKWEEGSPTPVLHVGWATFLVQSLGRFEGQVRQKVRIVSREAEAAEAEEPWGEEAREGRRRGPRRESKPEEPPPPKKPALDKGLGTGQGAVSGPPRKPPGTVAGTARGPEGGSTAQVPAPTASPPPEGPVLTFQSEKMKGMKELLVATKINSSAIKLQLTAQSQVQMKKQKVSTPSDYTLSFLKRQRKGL

Structures were worked out from names or drawings and are uncertain.

The test system of one assay is MV-4-11 cells. The assay is described as follows: Cell proliferation assay (CellTiter-Glo), MV-4-11. As to conditions: read-out: Cell antiproliferation assay MV-4-11 IC50; MV-4-11 (MLL-AF4), 4 days incubation. The method, then: The antiproliferative activity of test compounds was assessed in human leukemia cell lines. The cell line MV4-11, MOLM13 and OCI-AML3, which expresses the MLL fusion protein MLL-AF4, MLL-AF9 and carry the NPM1c gene mutation, respectively, were tested. HL-60 was used as a control cell line containing two MLL wildtype alleles in order to exclude compounds that display general cytotoxic effect. MV4-11 cells were cultured in IMDM supplemented with 10% FBS, MOLM13 and OCI-AML3 cells were cultured in RPMI1640 supplemented with 20% FBS, and HL-60 cells were cultured in IMDM supplemented with 20% FBS. Corresponding cells (MV4-11, MOLM13, OCI-AML3 or HL-60 cell line) were seeded in 100 uL medium per well in 96-well plate (white wall with clear bottom, tissue culture treated, Corning, Cat. No. CLS3903; Lot.No. 30419025). Plates were placed in the CO2 incubator overnight. Compounds solution (2 mM starting, 4-fold serial dilution) were prepared and added to the wells containing 100 μL of the culture medium with HPD300 according to the plate map and centrifuge at 1000 rpm for 1 minutes (200-fold dilution totally). MV4-11, MOLM13, OCI-AML3 and HL-60 cells were incubated with the compounds for 4, 12, 5 and 4 days, respectively, under 5% CO2 at 37° C., respectively. […] After incubation at room temperature for 10 mins, clear bottom with white back seal was pasted and luminescence with Envision was read.

In the next assay the target is Menin-MLL1 (Homo sapiens, UniProt O00255). The assay is described as follows: Menin-MLL1 inhibition assay (fluorescence polarization, Menin protein + FAM-MLL peptide). As to conditions: read-out: Biochemical assay Menin-MLL1 IC50; Menin (2-610) isoform 2, FAM-labelled MLL peptide, mP readout. On the procedure: 1× assay bu9ffer (Tris 7.5 50 mM, NaCl 50 mM, DTT 1 mM, Tween-20 0.01%) was prepared and test compounds solution (10 mM in DMSO, Sigma, Cat. No. 34869) were transferred to assay plate (384-well plate, Perkin Elmer, Cat. No. 6007279) by Echo. The final fraction of DMSO is 1%. 20 nM of Menin protein (Menin (2-610) isform2, ChemPartner, Cat. No. 2020111101) in 1× assay buffer was added to prepare 2× enzyme solution. Then 10 nM of MLL-peptide (Ac-SRWRFPARPGTGRR-Ahx-Ahx-K(FAM)-NH2, GL Biochem (Shanghai)), Cat. No. 833831/202009220104) in 1× assay buffer was added to prepare 2× substrate solution. 10 μL of 2× enzyme solution was transferred to assay plate or 10 μL of 1× assay buffer for low control group. 10 μL of 2× substrate solution was added to each well to start reaction. mP data on Envision (Ex480/Em535(s), Em535(p)) was collected.
Compound potencies were determined by first calculating % inhibition at each compound concentration according to equation 1:
Inhibition %=(Max−Signal)/(Max−Min)*100 (Equation 1)
Y=Bottom+(Top-Bottom)/(1+(IC50/X)[…]), where Y is % inhibition and X is compound concentration (Equation 2)
In general terms: Polarisation of emitted light reports the rotation of a fluorescent probe.

`N#Cc1ccc(-c2cc(F)ccc2Oc2nncnc2N2CC3(CCN(C(=O)[C@H]4NC[C@@H]5CCC[C@@H]54)CC3)C2)c(C2CC2)c1`: the IC50 in the assay with MV-4-11 cells was found to be 2.3 nM; on Menin-MLL1 it was 4.4 nM.
Take `CCN(C(=O)c1cc(F)ccc1Oc1cncnc1N1CC2(CCN(C(=O)[C@H]3NCc4c3cnn4C)CC2)C1)C(C)C`: the IC50 in the assay with MV-4-11 cells is 107 nM; on Menin-MLL1, 5.2 nM.
